# Some values come without a unit; they compare only within their column.
# Assays:
# [1] = Serum ethanolamine phospholipid ratios to PtdEt 16:0/18:0 (M01) in human cohorts
# [2] = Serum ethanolamine phospholipid levels in human cohorts (dementia severity, post-mortem pathology, age) by flow-injection MS/MS
# [3] = serum, females, post mortem SDAT
# [4] = serum, females, post mortem control
compound,measurement,setting,value
"CCCCCCCC/C=C\CCCCCCCC(=O)OC(COC(=O)CCCCCCCCCCCCCCC)COP(=O)(O)OCCN (centres unmarked) [Metabolite M02, PtdEt 16:0/18:1]",Ratio of ethanolamine phospholipid ratios to M01 between cohorts,"[1]; AD, All to CN, Male",0.803
same,Ratio of ethanolamine phospholipid ratios to M01 between cohorts,"[1]; ADAS 5-19 to CN, Male",0.842
same,Ratio of ethanolamine phospholipid ratios to M01 between cohorts,"[1]; ADAS 20-39 to CN, Male",0.807
same,Ratio of ethanolamine phospholipid ratios to M01 between cohorts,"[1]; ADAS 40-70 to CN, Male",0.680
same,"Average serum ethanolamine phospholipid ratio to M01, Mean","[1]; Cognitive Normal, Male, serum",0.564
same,"Average serum ethanolamine phospholipid ratio to M01, Mean","[1]; SDAT, ADAS 5-19, Male, serum",0.475
same,"Average serum ethanolamine phospholipid ratio to M01, Mean","[1]; SDAT, ADAS 20-39, Male, serum",0.455
same,"Average serum ethanolamine phospholipid ratio to M01, Mean","[1]; SDAT, ADAS 40-70, Male, serum",0.383
same,"Average serum ethanolamine phospholipid ratio to M01, Mean","[1]; SDAT_all, Male, serum",0.453
same,"Ethanolamine Phospholipid Ratio to M01, Mean, Age Ctl, 30-39, Female","[1]; human serum, females aged 30-39",0.474
same,"Ethanolamine Phospholipid Ratio to M01, Mean, Age Ctl, 40-49, Female","[1]; human serum, females aged 40-49",0.597
same,"Ethanolamine Phospholipid Ratio to M01, Mean, Age Ctl, 50-59, Female","[1]; human serum, females aged 50-59",0.551
same,"Ratio of Ethanolamine Phospholipid Ratio to M01, 50-59 vs. 40-49, Female","[1]; human serum, females aged 50-59 vs. females aged 40-49",0.923
same,"Ethanolamine Phospholipid Ratio to M01, Mean, Age Ctl, 60-69, Female","[1]; human serum, females aged 60-69",0.460
same,"Ratio of Ethanolamine Phospholipid Ratio to M01, 60-69 vs. 40-49, Female","[1]; human serum, females aged 60-69 vs. females aged 40-49",0.771
same,"Ethanolamine Phospholipid Ratio to M01, Mean, Age Ctl, 70+_Female","[1]; human serum, females aged 70+",0.455
same,"Ratio of Ethanolamine Phospholipid Ratio to M01, 70+ vs. 40-49, Female","[1]; human serum, females aged 70+ vs. females aged 40-49",0.763
same,"Ratio of Ethanolamine Phospholipid Ratio to M01, 50-59 vs. 40-49, Male","[1]; human serum, males aged 50-59 vs. males aged 40-49",1.082
same,"Ratio of Ethanolamine Phospholipid Ratio to M01, 60-69 vs. 40-49, Male","[1]; human serum, males aged 60-69 vs. males aged 40-49",0.903
same,"Ratio of Ethanolamine Phospholipid Ratio to M01, 70+ vs. 40-49, Male","[1]; human serum, males aged 70+ vs. males aged 40-49",0.879
same,"Ratio of ethanolamine phospholipid ratio to M01, ADAS 5-19 to CN, Female","[1]; serum, females, ADAS 5-19 vs cognitive normal",0.872
same,"Ratio of ethanolamine phospholipid ratio to M01, ADAS 20-39 to 5-19, Female","[1]; serum, females, ADAS 20-39 vs ADAS 5-19",1.101
same,"Ratio of ethanolamine phospholipid ratio to M01, ADAS 20-39 to CN, Female","[1]; serum, females, ADAS 20-39 vs cognitive normal",0.960
same,"Ratio of ethanolamine phospholipid ratio to M01, ADAS 40-70 to 5-19, Female","[1]; serum, females, ADAS 40-70 vs ADAS 5-19",0.949
same,"Ratio of ethanolamine phospholipid ratio to M01, ADAS 40-70 to 20-39, Female","[1]; serum, females, ADAS 40-70 vs ADAS 20-39",0.862
same,"Ratio of ethanolamine phospholipid ratio to M01, ADAS 40-70 to CN, Female","[1]; serum, females, ADAS 40-70 vs cognitive normal",0.828
same,"Ethanolamine phospholipid ratio to M01, Mean, SDAT, ADAS 5-19, Female","[1]; serum, females, SDAT ADAS 5-19",0.454
same,"Ethanolamine phospholipid ratio to M01, Mean, SDAT, ADAS 20-39, Female","[1]; serum, females, SDAT ADAS 20-39",0.499
same,"Ethanolamine phospholipid ratio to M01, Mean, SDAT, ADAS 40-70, Female","[1]; serum, females, SDAT ADAS 40-70",0.431
same,"Ratio of ethanolamine phospholipid ratio to M01, AD, All to CN, Female","[1]; serum, females, all AD vs cognitive normal",0.891
same,"Ethanolamine phospholipid ratio to M01, Mean, SDAT_all Female","[1]; serum, females, all SDAT",0.463
same,"Ratio of ethanolamine phospholipid ratio to M01, Autopsy AD vs. Control, Female","[1]; serum, females, autopsy AD vs post mortem control",1.140
same,"Ethanolamine phospholipid ratio to M01, Mean, Cognitive Normal, Female","[1]; serum, females, cognitive normal",0.520
same,"Ethanolamine phospholipid ratio to M01, Mean, Post Mortem SDAT Female",[1]; [3],0.367
same,"Ethanolamine phospholipid ratio to M01, Mean, Post Mortem Ctl, Female",[1]; [4],0.322
same,"Ratio of ethanolamine phospholipid ratio to M01, ADAS 20-39 to 5-19, Male","[1]; serum, males, SDAT ADAS 20-39 vs ADAS 5-19",0.958
same,"Ratio of ethanolamine phospholipid ratio to M01, ADAS 40-70 to 5-19, Male","[1]; serum, males, SDAT ADAS 40-70 vs ADAS 5-19",0.807
same,"Ratio of ethanolamine phospholipid ratio to M01, ADAS 40-70 to 20-39, Male","[1]; serum, males, SDAT ADAS 40-70 vs ADAS 20-39",0.843
same,"Ethanolamine phospholipid ratio to M01, Mean, Age Ctl, 30-39, Male","[1]; serum, males, age control 30-39",0.476
same,"Ethanolamine phospholipid ratio to M01, Mean, Age Ctl, 40-49, Male","[1]; serum, males, age control 40-49",0.477
same,"Ethanolamine phospholipid ratio to M01, Mean, Age Ctl, 50-59, Male","[1]; serum, males, age control 50-59",0.517
same,"Ethanolamine phospholipid ratio to M01, Mean, Age Ctl, 60-69, Male","[1]; serum, males, age control 60-69",0.431
same,"Ethanolamine phospholipid ratio to M01, Mean, Age Ctl, 70+_Male","[1]; serum, males, age control 70+",0.420
same,"Ethanolamine phospholipid ratio to M01, Mean, Post Mortem SDAT Male","[1]; serum, males, post mortem SDAT",0.290
same,"Ratio of ethanolamine phospholipid ratio to M01, SDAT vs Control (post mortem, males)","[1]; serum, males, post mortem SDAT vs post mortem control",0.791
same,"Ethanolamine phospholipid ratio to M01, Mean, Post Mortem Ctl, Male","[1]; serum, males, post mortem control",0.367
same,Ratio of serum levels,"[2]; AD, All to CN, Male",0.845
same,Ratio of serum levels,"[2]; ADAS 5-19 to CN, Male",0.898
same,Ratio of serum levels,"[2]; ADAS 20-39 to 5-19, Male",0.908
same,Ratio of serum levels,"[2]; ADAS 20-39 to CN, Male",0.816
same,Ratio of serum levels,"[2]; ADAS 40-70 to 5-19, Male",0.768
same,Ratio of serum levels,"[2]; ADAS 40-70 to 20-39, Male",0.846
same,Ratio of serum levels,"[2]; ADAS 40-70 to CN, Male",0.690
same,"Serum level, Mean","[2]; Cognitive Normal, Female",0.062
same,"Average serum level, Mean","[2]; Cognitive Normal, Male",0.066
same,"Serum level, Mean","[2]; Post Mortem Ctl, Male",0.046
same,"Serum level, Mean",[2]; Post Mortem SDAT Male,0.026
same,Ratio of serum levels,"[2]; Post mortem SDAT vs Control, Male",0.568
same,"Serum level, Mean","[2]; SDAT, ADAS 5-19, Female",0.050
same,"Average serum level, Mean","[2]; SDAT, ADAS 5-19, Male",0.060
same,"Serum level, Mean","[2]; SDAT, ADAS 20-39, Female",0.057
same,"Average serum level, Mean","[2]; SDAT, ADAS 20-39, Male",0.054
same,"Serum level, Mean","[2]; SDAT, ADAS 40-70, Female",0.052
same,"Average serum level, Mean","[2]; SDAT, ADAS 40-70, Male",0.046
same,"Serum level, Mean","[2]; SDAT_all, Female",0.053
same,"Average serum level, Mean","[2]; SDAT_all, Male",0.056
same,"Ratio, ADAS 5-19 to CN, Female","[2]; serum level ratio, females, ADAS 5-19 vs CN",0.806
same,"Ratio, ADAS 20-39 to 5-19, Female","[2]; serum level ratio, females, ADAS 20-39 vs ADAS 5-19",1.132
same,"Ratio, ADAS 20-39 to CN, Female","[2]; serum level ratio, females, ADAS 20-39 vs CN",0.912
same,"Ratio, ADAS 40-70 to 5-19, Female","[2]; serum level ratio, females, ADAS 40-70 vs ADAS 5-19",1.034
same,"Ratio, ADAS 40-70 to 20-39, Female","[2]; serum level ratio, females, ADAS 40-70 vs ADAS 20-39",0.914
same,"Ratio, ADAS 40-70 to CN, Female","[2]; serum level ratio, females, ADAS 40-70 vs CN",0.833
same,"Ratio, 50-59 vs. 40-49, Female","[2]; serum level ratio, females, age 50-59 vs 40-49",0.838
same,"Ratio, 60-69 vs. 40-49, Female","[2]; serum level ratio, females, age 60-69 vs 40-49",0.835
same,"Ratio, 70+ vs. 40-49, Female","[2]; serum level ratio, females, age 70+ vs 40-49",0.812
same,"Ratio, AD, All to CN, Female","[2]; serum level ratio, females, all AD vs cognitively normal",0.856
same,"Ratio, Autopsy AD vs. Control, Female","[2]; serum level ratio, females, autopsy AD vs control",0.773
same,"Ratio, 50-59 vs. 40-49, Male","[2]; serum level ratio, males, age 50-59 vs 40-49",0.998
same,"Ratio, 60-69 vs. 40-49, Male","[2]; serum level ratio, males, age 60-69 vs 40-49",1.024
same,"Ratio, 70+ vs. 40-49, Male","[2]; serum level ratio, males, age 70+ vs 40-49",0.965
same,"Mean serum level, Age Ctl, 30-39, Female","[2]; serum, females, age 30-39",0.047
same,"Mean serum level, Age Ctl, 40-49, Female","[2]; serum, females, age 40-49",0.069
same,"Mean serum level, Age Ctl, 50-59, Female","[2]; serum, females, age 50-59",0.058
same,"Mean serum level, Age Ctl, 60-69, Female","[2]; serum, females, age 60-69",0.058
same,"Mean serum level, Age Ctl, 70+, Female","[2]; serum, females, age 70+",0.056
same,"Mean serum level, Post Mortem SDAT, Female",[2]; [3],0.048
same,"Mean serum level, Post Mortem Ctl, Female",[2]; [4],0.062
same,"Mean serum level, Age Ctl, 30-39, Male","[2]; serum, males, age 30-39",0.056
same,"Mean serum level, Age Ctl, 40-49, Male","[2]; serum, males, age 40-49",0.058
same,"Mean serum level, Age Ctl, 50-59, Male","[2]; serum, males, age 50-59",0.058
same,"Mean serum level, Age Ctl, 60-69, Male","[2]; serum, males, age 60-69",0.059
same,"Mean serum level, Age Ctl, 70+, Male","[2]; serum, males, age 70+",0.056

# — patent publication US9517222B2, “Method for the treatment of senile dementia of the Alzheimer's type” (Phenomenome Discoveries Inc., priority 2007, dated 2016)
